{"source": "PubChem BioAssay AID493014", "about": "(National Center for Advancing Translational Sciences (NCATS), 2011)", "note": "The campaign covered roughly 340,000 compounds. About 170 (0.05%) were called active. The inconclusive results got no clear call from the source; some entries with a clear call stand among them for comparison. Calls follow the shape of the dose curve; as a rule, active = well fitted inhibition curve with a large enough effect in the signal ratio, with a control signal flat (not every such curve was filed as active); inconclusive = small, poorly fitted or top-dose-only effect, or effect the other way, or a change in a side signal; inactive = flat fitted curve, though single readings scatter; the % refers to the signal ratio. Where the call is inconclusive, the potency comes from a doubtful curve fit. Potency is read from the fitted curve at half-maximal effect."}
{"experiment": "qHTS Assay to Find Inhibitors of Chronic Active B-Cell Receptor Signaling;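 as to activity change, negative = inhibition: plate controls were basal doxycycline-induced cells for no effect and cells given 10 µM MG132 for full effect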", "conditions": "ABC-DLBCL IkBa-CBG/CBR reporter, luminescence ratio (green luciferase fused to IkBa over red control in TMD8 lymphoma cells), 4 h; activity change, negative = inhibition: at 46.1 µM (top of the series) unless noted", "in_short": "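Cell line TMD8 (human ABC DLBCL), stably expressing tet-inducible CBG68-IkBa fusion and CBR; IMDM/0.5% FBS; cpd up to 46 uM; dox induction, 4 h, 37C/5% CO2; dual luminescence; green/red ratio; MG132 control.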"}
{"smiles": "CCOc1cccc(C(=O)Nc2cccc(NC(=O)c3ccco3)c2)c1", "Potency": "inconclusive: 11.2 µM [falling, partial curve]"}
{"smiles": "O=C(CN1C(=O)NC2(CCCC2)C1=O)Nc1ccc(Cl)c(C(F)(F)F)c1", "activity change, negative = inhibition": "inconclusive: -17.8%"}
{"smiles": "N#Cc1c2c(c(-n3cnc4ccccc43)n3c1nc1ccccc13)CCC2", "activity change, negative = inhibition": "inconclusive: 8.78%"}
{"smiles": "O=P(O)(O)COc1ccccc1P(=O)(c1ccccc1)c1ccccc1", "Potency": "inconclusive: 32.6 µM [falling, partial curve, poor fit]"}
{"smiles": "COc1cccc(OCC(O)CN2CCN(c3ccc(F)cc3)CC2)c1", "note": "(stereo unspecified)", "activity change, negative = inhibition": "inactive: -1.27%"}
{"smiles": "Cc1ccc(NC(=O)CSC2=C(C#N)C(c3ccco3)C3=C(CC(C)(C)CC3=O)N2)cc1", "note": "(stereo unspecified)", "activity change, negative = inhibition": "inconclusive: 8.15%"}
{"smiles": "CCOc1ccc(OCCn2c(=S)[nH]c3ccccc32)cc1", "activity change, negative = inhibition": "inconclusive: -1%"}
{"smiles": "O=C(O)c1cccc(NC(=S)N/N=C/c2ccccc2OCc2cccc(Br)c2)c1", "Potency": "inconclusive: 25.1 µM [falling, single point]"}
{"smiles": "Nc1cc(=O)[nH]c(SCC(=O)NNC(=O)Cc2ccccc2)n1", "activity change, negative = inhibition": "inactive: -5.52%"}
{"smiles": "COc1cc(/C=N\\NC(=O)c2ccc(C)nc2)ccc1OC(=O)c1cccc(F)c1", "activity change, negative = inhibition": "inconclusive: 4.46%"}
{"smiles": "CCOc1ccc(NC(=O)CN(C)C(=O)CSc2ccccc2)cc1OCC", "activity change, negative = inhibition": "inconclusive: -3.37%"}
{"smiles": "Cc1c(Cl)cccc1NC(=O)[C@@H](NC(=O)c1ccccc1Cl)C(C)C", "activity change, negative = inhibition": "inconclusive: 4.05%"}
{"smiles": "COc1cccc(NC(=O)COC(=O)COc2cccc3c2OC(C)(C)C3)c1", "activity change, negative = inhibition": "inactive: -11.7%"}
{"smiles": "Cc1cccc(NC(=O)NC2(C(=O)NCc3ccco3)CCCCC2)c1", "activity change, negative = inhibition": "inactive: -1.39%"}
{"smiles": "COc1ccc2cc(CN(CC3CCCO3)C(=O)Nc3ccccc3OC)c(=O)[nH]c2c1", "note": "(stereo unspecified)", "activity change, negative = inhibition": "inconclusive: -23.7%"}
{"smiles": "CCOC(=O)c1cc(C)n(Cc2ccc(OCC)c(OC)c2)c1C", "activity change, negative = inhibition": "inconclusive: 11%"}
{"smiles": "COc1cc(SC)ccc1C(=O)OCC(=O)NCC(C)C", "activity change, negative = inhibition": "inconclusive: 4.52%"}
{"smiles": "O=C1c2ccccc2C(=O)C1(CO)c1ccc(OC(F)F)cc1", "Potency": "inconclusive: 5.62 µM [falling, partial curve, poor fit]"}
{"smiles": "Cc1cccc(NC(=O)Nc2cccc(C#N)c2)n1", "Potency": "inconclusive: 11.6 µM [rising, partial curve, poor fit]"}
{"smiles": "CCN(CC)S(=O)(=O)c1ccc(C(=O)Nc2nnc(COC)o2)cc1", "activity change, negative = inhibition": "inactive: 1.43%"}
{"smiles": "CCOC(=O)c1[nH]c(C)c(C(=O)c2ccc(C)cc2)c1C", "Potency": "inconclusive: 1.64 µM [falling, full curve]"}
{"smiles": "COc1cccc(NC(=O)c2ccc3nsnc3c2)c1", "Potency": "inconclusive: 20 µM [falling, partial curve, poor fit]"}
{"smiles": "CCN(CC)C(=O)CSc1nnnn1-c1ccc(F)c(Cl)c1", "activity change, negative = inhibition": "inactive: 0.474%"}
{"smiles": "Cc1ccc(F)cc1N=Cc1c(O)c2ccccc2oc1=O", "Potency": "inconclusive: 11.2 µM [falling, partial curve]"}
{"smiles": "O=C(CNC(=O)[C@@H]1Cc2ccccc2CN1)Nc1ccc2c(c1)OCCO2", "activity change, negative = inhibition": "inconclusive: 0.541%"}
{"smiles": "COCCn1c(N)c(C(=O)NCC2CCCO2)c2nc3ccccc3nc21", "note": "(stereo unspecified)", "activity change, negative = inhibition": "inconclusive: 9.05%"}
{"smiles": "COc1cccc(/C=N/n2c(-c3cccs3)n[nH]c2=S)c1", "activity change, negative = inhibition": "inactive: 14.4%"}
{"smiles": "O=C(NNc1ncnc2c1cnn2-c1ccccc1)c1ccco1", "activity change, negative = inhibition": "inconclusive: 21%"}
{"smiles": "Cc1nc(C)c(C(=O)NNC(=O)c2ccc(Br)cc2)s1", "Potency": "inconclusive: 29.1 µM [falling, single point]"}
{"smiles": "COc1ccccc1NC(=O)CN1CCOCC1", "activity change, negative = inhibition": "inconclusive: -1.37%"}
{"smiles": "COc1ccc(CNC(=O)C2CCN(S(=O)(=O)c3ccc4c(c3)NC(=O)CO4)CC2)cc1", "activity change, negative = inhibition": "inconclusive: -15%"}
{"smiles": "CCNCCNC(=O)c1c(O)c2cccc3c2n(c1=O)CCC3", "activity change, negative = inhibition": "inconclusive: 3.05%"}
{"smiles": "CCOc1ccc(OC(=O)NC(c2ccccc2)C(Cl)(Cl)Cl)cc1", "note": "(stereo unspecified)", "Potency": "inconclusive: 35.5 µM [rising, partial curve, poor fit]"}
{"smiles": "CCOC(=O)c1c(C)[nH]c(C(=O)NCc2ccco2)c1C", "activity change, negative = inhibition": "inactive: 1.54%"}
{"smiles": "CC(Sc1nc(O)c(-c2ccccc2)c(=O)[nH]1)C(=O)Nc1ccc(Cl)cc1", "note": "(stereo unspecified)", "Potency": "inconclusive: 8.91 µM [falling, partial curve]"}
{"smiles": "c1ccc(-c2c(-c3ccccc3)n(Cc3ccco3)c3ncnc(NCCCn4ccnc4)c23)cc1", "Potency": "inconclusive: 6.51 µM [falling, single point]"}
{"smiles": "CCOC(=O)N1CCC(NS(=O)(=O)c2cc3c(cc2Cl)NC(=O)CO3)CC1", "activity change, negative = inhibition": "inconclusive: -1.66%"}
{"smiles": "O=C(NC1CCCCCC1)c1cccc(N2CCCC2=O)c1", "Potency": "inconclusive: 25.9 µM [falling, partial curve, poor fit]"}
{"smiles": "CCCOc1ccc(C(=O)Nn2c(C)nc3ccccc3c2=O)cc1", "activity change, negative = inhibition": "inconclusive: -23.4%"}
{"smiles": "COc1ccccc1CNc1ncccc1[N+](=O)[O-]", "activity change, negative = inhibition": "inconclusive: 0.534%"}
{"smiles": "COc1ccc(NC(C)=O)cc1S(=O)(=O)Nc1ccc(OCc2ccccc2)cc1", "Potency": "inconclusive: 17.8 µM [falling, partial curve, poor fit]"}
